Measurements taken from patent publication US20250367166A1, “NEXT GENERATION DIPROVOCIMS THAT ACTIVATE THE INNATE AND ADAPTIVE IMMUNE RESPONSE” (The Scripps Research Institute, priority 2022, published 2025).
Some of these results come from one statement about several compounds together.

Amino acid sequences for entries named in this document (tags omitted). Residues count along the entry.
UniProt O60603, 21-784: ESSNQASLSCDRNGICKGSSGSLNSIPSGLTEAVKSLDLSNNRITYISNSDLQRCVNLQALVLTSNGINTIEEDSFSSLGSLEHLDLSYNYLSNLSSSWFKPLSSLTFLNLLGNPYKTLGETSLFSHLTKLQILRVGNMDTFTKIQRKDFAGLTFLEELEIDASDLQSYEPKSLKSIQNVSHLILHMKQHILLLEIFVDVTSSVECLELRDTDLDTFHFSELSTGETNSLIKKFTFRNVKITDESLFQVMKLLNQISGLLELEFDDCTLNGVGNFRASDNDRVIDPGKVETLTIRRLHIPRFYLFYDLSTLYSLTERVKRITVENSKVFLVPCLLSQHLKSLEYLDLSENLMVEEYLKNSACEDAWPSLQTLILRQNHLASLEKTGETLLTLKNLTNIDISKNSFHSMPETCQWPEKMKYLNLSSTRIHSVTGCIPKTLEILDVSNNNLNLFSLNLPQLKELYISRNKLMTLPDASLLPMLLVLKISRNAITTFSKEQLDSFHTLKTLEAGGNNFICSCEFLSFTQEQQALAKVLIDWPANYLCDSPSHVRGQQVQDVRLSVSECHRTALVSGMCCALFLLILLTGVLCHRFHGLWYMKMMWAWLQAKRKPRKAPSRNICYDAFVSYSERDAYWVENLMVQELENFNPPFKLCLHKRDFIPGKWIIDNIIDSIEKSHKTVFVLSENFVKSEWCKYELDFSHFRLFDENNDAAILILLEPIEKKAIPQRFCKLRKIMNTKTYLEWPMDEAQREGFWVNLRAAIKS
UniProt Q15399, 25-786: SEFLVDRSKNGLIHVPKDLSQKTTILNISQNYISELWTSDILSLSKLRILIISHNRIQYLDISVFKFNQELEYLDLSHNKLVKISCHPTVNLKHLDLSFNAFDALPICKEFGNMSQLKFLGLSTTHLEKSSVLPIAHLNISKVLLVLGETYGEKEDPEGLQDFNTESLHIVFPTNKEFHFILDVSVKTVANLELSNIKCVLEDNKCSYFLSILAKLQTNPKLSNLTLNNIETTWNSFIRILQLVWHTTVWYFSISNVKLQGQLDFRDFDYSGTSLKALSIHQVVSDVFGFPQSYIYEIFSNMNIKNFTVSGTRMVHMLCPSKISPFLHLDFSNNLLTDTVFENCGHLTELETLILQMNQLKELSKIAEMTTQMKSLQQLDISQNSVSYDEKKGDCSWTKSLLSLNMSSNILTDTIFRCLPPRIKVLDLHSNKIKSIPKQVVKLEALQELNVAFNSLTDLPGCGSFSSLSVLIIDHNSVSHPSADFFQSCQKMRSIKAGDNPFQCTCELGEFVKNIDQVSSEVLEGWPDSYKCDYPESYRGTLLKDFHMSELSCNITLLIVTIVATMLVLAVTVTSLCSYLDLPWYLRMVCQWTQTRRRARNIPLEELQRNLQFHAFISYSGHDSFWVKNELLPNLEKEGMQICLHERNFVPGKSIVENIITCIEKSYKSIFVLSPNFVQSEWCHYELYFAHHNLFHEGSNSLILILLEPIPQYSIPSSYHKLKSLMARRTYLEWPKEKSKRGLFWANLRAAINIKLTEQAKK

Biological target: TLR1/TLR2 (Homo sapiens, UniProt O60603+Q15399)
Test: TNF-α release from PMA-differentiated human THP-1 cells (ELISA);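 further: cells exposed to graded compound concentrations for 4 h, TNF-α quantified in supernatant, LPS as positive and DMSO as negative control, values are duplicate means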
Conditions: Table 2 compounds

SMILES | losses in activity on incorporating three ethylene glycol units into the 12-atom linker
CC(C)(C)OC(=O)CCOCCOCCOCCNC(=O)[C@@H]1CN(C(=O)c2ccc(C(=O)N3C[C@@H](C(=O)N[C@H]4C[C@@H]4c4ccccc4)[C@H](C(=O)N[C@H]4C[C@@H]4c4ccccc4)C3)cc2)C[C@H]1C(=O)N[C@H]1C[C@@H]1c1ccccc1 [Compound 28, tert-Butyl 1-((3S,4S)-1-(4-((3S,4S)-3,4-bis(((1S,2R)-2-phenylcyclopropyl)carbamoyl)pyrrolidine-1-carbonyl)-benzoyl)-4-(((1S,2R)-2-phenylcyclopropyl)carbamoyl)-pyrrolidin-3-yl)-1-oxo-5,8,11-trioxa-2-azatetradecan-14-oate] | > 1000 fold
COC(=O)CCOCCOCCOCCNC(=O)[C@@H]1CN(C(=O)c2ccc(C(=O)N3C[C@@H](C(=O)N[C@H]4C[C@@H]4c4ccccc4)[C@H](C(=O)N[C@H]4C[C@@H]4c4ccccc4)C3)cc2)C[C@H]1C(=O)N[C@H]1C[C@@H]1c1ccccc1 [Compound 29, Methyl 1-((3S,4S)-1-(4-((3S,4S)-3,4-bis(((1S,2R)-2-phenylcyclopropyl)carbamoyl)pyrrolidine-1-carbonyl)benzoyl)-4-(((1S,2R)-2-phenylcyclopropyl)carbamoyl)-pyrrolidin-3-yl)-1-oxo-5,8,11-trioxa-2-azatetradecan-14-oate] | > 1000 fold
O=C(NCCOCCOCCOCCO)[C@@H]1CN(C(=O)c2ccc(C(=O)N3C[C@@H](C(=O)N[C@H]4C[C@@H]4c4ccccc4)[C@H](C(=O)N[C@H]4C[C@@H]4c4ccccc4)C3)cc2)C[C@H]1C(=O)N[C@H]1C[C@@H]1c1ccccc1 [Compound 30, (3S,4S)-1-(4-((3S,4S)-3,4-Bis(((1S,2R)-2-phenyl-cyclopropyl)carbamoyl)pyrrolidine-1-carbonyl)-benzoyl)-N^3-(2-(2-(2-(2-hydroxyethoxy)ethoxy)ethoxy)-ethyl)-N^4-((1S,2R)-2-phenylcyclopropyl)-pyrrolidine-3,4-dicarboxamide] | > 1000 fold
O=C(O)CCOCCOCCOCCNC(=O)[C@@H]1CN(C(=O)c2ccc(C(=O)N3C[C@@H](C(=O)N[C@H]4C[C@@H]4c4ccccc4)[C@H](C(=O)N[C@H]4C[C@@H]4c4ccccc4)C3)cc2)C[C@H]1C(=O)N[C@H]1C[C@@H]1c1ccccc1 [Compound 31, 1-((3S,4S)-1-(4-((3S,4S)-3,4-Bis(((1S,2R)-2-phenylcyclopropyl)carbamoyl)pyrrolidine-1-carbonyl)benzoyl)-4-(((1S,2R)-2-phenylcyclopropyl)-carbamoyl)pyrrolidin-3-yl)-1-oxo-5,8,11-trioxa-2-azatetradecan-14-oic acid] | > 1000 fold
